Test [1] deals with T1, Flag-tagged podocin domain P3 (amino acids 128-284) (UniProt Q91X05).
T1 sequence: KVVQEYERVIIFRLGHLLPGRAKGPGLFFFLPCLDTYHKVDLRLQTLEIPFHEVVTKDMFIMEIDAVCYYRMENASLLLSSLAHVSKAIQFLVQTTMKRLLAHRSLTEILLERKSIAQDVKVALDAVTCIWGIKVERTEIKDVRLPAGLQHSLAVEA
The test can be described thus: co-IP; HA-tagged Flot2 constructs and Flag-tagged podocin constructs expressed in HEK-293T cells; immunoprecipitation with anti-HA or anti-Flag (IgG as control), immunoblot for the other tag. Background: Immunoblotting shows a protein as a band on a membrane.

Test [2] concerns the target T2, Flag-tagged podocin domains P2+3 (amino acids 107-284) (UniProt Q91X05).
T2 sequence: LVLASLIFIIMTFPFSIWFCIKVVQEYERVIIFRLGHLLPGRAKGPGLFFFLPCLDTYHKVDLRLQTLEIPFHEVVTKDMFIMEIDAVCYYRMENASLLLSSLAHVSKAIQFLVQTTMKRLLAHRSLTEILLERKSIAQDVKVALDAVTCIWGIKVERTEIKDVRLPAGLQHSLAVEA
The test is described as above.

For test [3], the target named is T3, Flag-tagged podocin domains p2+3+4 (amino acids 107-385) (UniProt Q91X05).
T3 sequence: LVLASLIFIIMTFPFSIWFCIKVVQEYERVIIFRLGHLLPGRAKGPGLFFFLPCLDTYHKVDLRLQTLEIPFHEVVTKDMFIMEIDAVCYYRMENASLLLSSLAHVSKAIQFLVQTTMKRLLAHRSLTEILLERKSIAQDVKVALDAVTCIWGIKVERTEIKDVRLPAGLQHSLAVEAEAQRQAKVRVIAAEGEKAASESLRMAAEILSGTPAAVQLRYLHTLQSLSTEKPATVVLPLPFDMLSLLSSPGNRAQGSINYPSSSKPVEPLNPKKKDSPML
The description is as above.

The target in test [4] is T4, Flag-tagged Full-length podocin (amino acids 1-385) (UniProt Q91X05).
T4 sequence: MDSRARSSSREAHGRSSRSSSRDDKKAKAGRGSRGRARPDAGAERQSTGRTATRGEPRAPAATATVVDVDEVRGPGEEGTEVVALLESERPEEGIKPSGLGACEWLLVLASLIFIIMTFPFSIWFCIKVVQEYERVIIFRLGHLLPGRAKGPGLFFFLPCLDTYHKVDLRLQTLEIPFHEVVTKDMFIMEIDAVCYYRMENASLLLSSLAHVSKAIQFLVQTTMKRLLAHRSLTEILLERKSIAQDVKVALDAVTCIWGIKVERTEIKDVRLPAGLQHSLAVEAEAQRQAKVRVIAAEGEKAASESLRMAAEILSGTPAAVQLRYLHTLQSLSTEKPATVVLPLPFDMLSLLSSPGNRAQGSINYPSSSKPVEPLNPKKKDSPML
Described as above.

The target in test [5] is T5, Flag-tagged podocin domains P3+4 (amino acids 128-385) (UniProt Q91X05).
T5 sequence: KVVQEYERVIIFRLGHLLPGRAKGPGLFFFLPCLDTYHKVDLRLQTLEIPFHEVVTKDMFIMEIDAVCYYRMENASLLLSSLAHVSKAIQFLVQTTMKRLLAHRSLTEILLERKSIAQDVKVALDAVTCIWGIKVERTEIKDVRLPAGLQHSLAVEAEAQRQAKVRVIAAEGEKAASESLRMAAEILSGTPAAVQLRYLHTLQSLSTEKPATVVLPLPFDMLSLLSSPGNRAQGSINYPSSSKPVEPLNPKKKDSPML
The description is as above.

The target of test [6] is T6, Podocin, endogenous (mouse (endogenous in differentiated mouse podocytes and C57Bl/6 renal cortex)) (UniProt Q91X05).
T6 sequence: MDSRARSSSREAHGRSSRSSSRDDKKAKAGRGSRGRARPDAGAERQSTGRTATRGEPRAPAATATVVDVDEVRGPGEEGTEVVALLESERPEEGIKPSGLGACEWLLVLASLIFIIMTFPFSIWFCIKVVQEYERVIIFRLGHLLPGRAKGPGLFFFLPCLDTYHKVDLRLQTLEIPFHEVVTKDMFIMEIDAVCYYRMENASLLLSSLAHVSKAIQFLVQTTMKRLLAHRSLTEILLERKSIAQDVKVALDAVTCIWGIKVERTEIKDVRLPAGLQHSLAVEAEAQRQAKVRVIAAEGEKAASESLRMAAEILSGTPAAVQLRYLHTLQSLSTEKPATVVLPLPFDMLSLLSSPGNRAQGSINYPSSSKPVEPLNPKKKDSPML
The test can be described thus: co-IP; endogenous proteins in differentiated mouse podocytes; lysate incubated with anti-flot2, anti-podocin or IgG for 4 h at 4 °C, protein A/G agarose; western blot.

Test [7] concerns the target T6, Podocin, endogenous (mouse (endogenous in differentiated mouse podocytes and C57Bl/6 renal cortex)). Description: co-IP; endogenous proteins in renal cortex lysates from C57Bl/6 mice; reciprocal immunoprecipitation with anti-flot2 or anti-podocin.
Test [8] has as its target T7, Flotillin-2 (Flot2), endogenous (mouse (endogenous in differentiated mouse podocytes and C57Bl/6 renal cortex)) (UniProt Q60634).
T7 sequence: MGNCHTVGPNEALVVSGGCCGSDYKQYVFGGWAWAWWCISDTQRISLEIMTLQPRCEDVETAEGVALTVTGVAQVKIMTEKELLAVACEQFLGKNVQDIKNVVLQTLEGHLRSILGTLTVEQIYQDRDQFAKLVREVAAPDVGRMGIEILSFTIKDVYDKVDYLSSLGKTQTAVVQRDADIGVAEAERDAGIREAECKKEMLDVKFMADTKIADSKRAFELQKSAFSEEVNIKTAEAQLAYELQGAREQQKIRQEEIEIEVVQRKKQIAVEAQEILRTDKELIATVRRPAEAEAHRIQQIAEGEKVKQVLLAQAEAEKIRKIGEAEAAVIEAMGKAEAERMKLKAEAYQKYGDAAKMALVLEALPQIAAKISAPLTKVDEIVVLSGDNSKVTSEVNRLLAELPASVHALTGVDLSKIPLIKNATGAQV
Description: co-IP; endogenous proteins in differentiated mouse podocytes; lysate incubated with anti-flot2, anti-podocin or IgG for 4 h at 4 °C, protein A/G agarose; western blot.

Test [9] concerns the target T7, Flotillin-2 (Flot2), endogenous (mouse (endogenous in differentiated mouse podocytes and C57Bl/6 renal cortex)). Description: co-IP; endogenous proteins in renal cortex lysates from C57Bl/6 mice; reciprocal immunoprecipitation with anti-flot2 or anti-podocin.
Test [10] deals with T8, HA-tagged flot2 domains F1+2 (amino acids 1-184) (UniProt Q60634).
T8 sequence: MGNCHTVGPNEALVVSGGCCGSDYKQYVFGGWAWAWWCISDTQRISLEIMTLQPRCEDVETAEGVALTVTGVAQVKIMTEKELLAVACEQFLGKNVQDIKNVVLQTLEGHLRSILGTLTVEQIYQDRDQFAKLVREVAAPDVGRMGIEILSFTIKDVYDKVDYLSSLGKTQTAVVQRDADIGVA
Description: co-IP; HA-tagged Flot2 constructs and Flag-tagged podocin constructs expressed in HEK-293T cells; immunoprecipitation with anti-HA or anti-Flag (IgG as control), immunoblot for the other tag.

Test [11] deals with T9, HA-tagged flot2 domain F2 (amino acids 30-184) (UniProt Q60634).
T9 sequence: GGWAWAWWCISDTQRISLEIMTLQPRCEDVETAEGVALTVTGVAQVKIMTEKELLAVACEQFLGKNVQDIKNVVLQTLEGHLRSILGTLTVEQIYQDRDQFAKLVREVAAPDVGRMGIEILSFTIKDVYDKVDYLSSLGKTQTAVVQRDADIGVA
The test is described as above.

Test [12] addresses T10, HA-tagged Full-length flot2 (amino acids 1-428) (UniProt Q60634).
T10 sequence: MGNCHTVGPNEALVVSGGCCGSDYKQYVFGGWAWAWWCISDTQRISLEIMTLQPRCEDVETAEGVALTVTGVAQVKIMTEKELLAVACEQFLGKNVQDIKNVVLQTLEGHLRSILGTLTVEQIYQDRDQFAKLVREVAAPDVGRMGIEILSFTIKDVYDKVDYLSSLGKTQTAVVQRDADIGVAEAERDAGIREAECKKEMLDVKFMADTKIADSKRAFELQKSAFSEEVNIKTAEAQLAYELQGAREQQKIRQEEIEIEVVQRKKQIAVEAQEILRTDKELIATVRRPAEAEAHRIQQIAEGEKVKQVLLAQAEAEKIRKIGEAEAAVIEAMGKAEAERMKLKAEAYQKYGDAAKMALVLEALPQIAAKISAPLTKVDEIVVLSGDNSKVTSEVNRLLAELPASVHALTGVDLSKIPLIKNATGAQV
Described as above.

For test [13], the target named is T11, GST-Flot2 (amino acids 30-184), SPFH domain (mouse) (UniProt Q60634).
T11 sequence: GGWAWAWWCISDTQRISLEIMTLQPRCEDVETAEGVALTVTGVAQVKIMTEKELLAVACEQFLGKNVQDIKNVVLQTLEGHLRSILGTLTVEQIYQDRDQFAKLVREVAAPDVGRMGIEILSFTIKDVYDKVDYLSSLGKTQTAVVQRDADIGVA
Description: pull-down; GST pull-down: GST-Flot2 (30-184) or GST on GST resin; His-podocin (128-284) pulled out of the lysates; immunoblot with anti-His; only the target purified.

These are yes or no findings as the source states them, for the method shown. In cells and extracts the contact can be indirect. Some binding calls cover weakened binding; strength is not graded here. For part of these data: Sequences can lack the tags named with a protein.

B1: HA-tagged Full-length flot2 (amino acids 1-428) (protein, UniProt Q60634 1-428)
chain: MGNCHTVGPNEALVVSGGCCGSDYKQYVFGGWAWAWWCISDTQRISLEIMTLQPRCEDVETAEGVALTVTGVAQVKIMTEKELLAVACEQFLGKNVQDIKNVVLQTLEGHLRSILGTLTVEQIYQDRDQFAKLVREVAAPDVGRMGIEILSFTIKDVYDKVDYLSSLGKTQTAVVQRDADIGVAEAERDAGIREAECKKEMLDVKFMADTKIADSKRAFELQKSAFSEEVNIKTAEAQLAYELQGAREQQKIRQEEIEIEVVQRKKQIAVEAQEILRTDKELIATVRRPAEAEAHRIQQIAEGEKVKQVLLAQAEAEKIRKIGEAEAAVIEAMGKAEAERMKLKAEAYQKYGDAAKMALVLEALPQIAAKISAPLTKVDEIVVLSGDNSKVTSEVNRLLAELPASVHALTGVDLSKIPLIKNATGAQV
With B1, the binding entry in test [1], in [2], in test [3], in [4] and in [5] was “binds” each time.

B2: Flotillin-2 (Flot2), endogenous (protein, UniProt Q60634 1-428)
chain: MGNCHTVGPNEALVVSGGCCGSDYKQYVFGGWAWAWWCISDTQRISLEIMTLQPRCEDVETAEGVALTVTGVAQVKIMTEKELLAVACEQFLGKNVQDIKNVVLQTLEGHLRSILGTLTVEQIYQDRDQFAKLVREVAAPDVGRMGIEILSFTIKDVYDKVDYLSSLGKTQTAVVQRDADIGVAEAERDAGIREAECKKEMLDVKFMADTKIADSKRAFELQKSAFSEEVNIKTAEAQLAYELQGAREQQKIRQEEIEIEVVQRKKQIAVEAQEILRTDKELIATVRRPAEAEAHRIQQIAEGEKVKQVLLAQAEAEKIRKIGEAEAAVIEAMGKAEAERMKLKAEAYQKYGDAAKMALVLEALPQIAAKISAPLTKVDEIVVLSGDNSKVTSEVNRLLAELPASVHALTGVDLSKIPLIKNATGAQV
For the molecule B2, the binding entry in test [6] and in test [7] was “binds” throughout.

B3: HA-tagged flot2 domain F2 (amino acids 30-184) (domain or fragment, UniProt Q60634 30-184)
chain: GGWAWAWWCISDTQRISLEIMTLQPRCEDVETAEGVALTVTGVAQVKIMTEKELLAVACEQFLGKNVQDIKNVVLQTLEGHLRSILGTLTVEQIYQDRDQFAKLVREVAAPDVGRMGIEILSFTIKDVYDKVDYLSSLGKTQTAVVQRDADIGVA
As for B3, the binding entry in [1] is “binds”.

B4: Podocin, endogenous (protein, UniProt Q91X05 1-385)
chain: MDSRARSSSREAHGRSSRSSSRDDKKAKAGRGSRGRARPDAGAERQSTGRTATRGEPRAPAATATVVDVDEVRGPGEEGTEVVALLESERPEEGIKPSGLGACEWLLVLASLIFIIMTFPFSIWFCIKVVQEYERVIIFRLGHLLPGRAKGPGLFFFLPCLDTYHKVDLRLQTLEIPFHEVVTKDMFIMEIDAVCYYRMENASLLLSSLAHVSKAIQFLVQTTMKRLLAHRSLTEILLERKSIAQDVKVALDAVTCIWGIKVERTEIKDVRLPAGLQHSLAVEAEAQRQAKVRVIAAEGEKAASESLRMAAEILSGTPAAVQLRYLHTLQSLSTEKPATVVLPLPFDMLSLLSSPGNRAQGSINYPSSSKPVEPLNPKKKDSPML
With B4, the binding result in test [8] and in test [9] was “binds” each time.

B5: Flag-tagged Full-length podocin (amino acids 1-385) (protein, UniProt Q91X05 1-385)
chain: MDSRARSSSREAHGRSSRSSSRDDKKAKAGRGSRGRARPDAGAERQSTGRTATRGEPRAPAATATVVDVDEVRGPGEEGTEVVALLESERPEEGIKPSGLGACEWLLVLASLIFIIMTFPFSIWFCIKVVQEYERVIIFRLGHLLPGRAKGPGLFFFLPCLDTYHKVDLRLQTLEIPFHEVVTKDMFIMEIDAVCYYRMENASLLLSSLAHVSKAIQFLVQTTMKRLLAHRSLTEILLERKSIAQDVKVALDAVTCIWGIKVERTEIKDVRLPAGLQHSLAVEAEAQRQAKVRVIAAEGEKAASESLRMAAEILSGTPAAVQLRYLHTLQSLSTEKPATVVLPLPFDMLSLLSSPGNRAQGSINYPSSSKPVEPLNPKKKDSPML
For B5, the binding entry in [10], in test [11] and in test [12] was “binds” throughout.

B6: Flag-tagged podocin domain P3 (amino acids 128-284) (domain or fragment, UniProt Q91X05 128-284)
chain: KVVQEYERVIIFRLGHLLPGRAKGPGLFFFLPCLDTYHKVDLRLQTLEIPFHEVVTKDMFIMEIDAVCYYRMENASLLLSSLAHVSKAIQFLVQTTMKRLLAHRSLTEILLERKSIAQDVKVALDAVTCIWGIKVERTEIKDVRLPAGLQHSLAVEA
As for B6, the binding entry in test [11] is “binds”.

B7: His-podocin (amino acids 128-284), SPFH domain (domain or fragment, UniProt Q91X05 128-284)
chain: KVVQEYERVIIFRLGHLLPGRAKGPGLFFFLPCLDTYHKVDLRLQTLEIPFHEVVTKDMFIMEIDAVCYYRMENASLLLSSLAHVSKAIQFLVQTTMKRLLAHRSLTEILLERKSIAQDVKVALDAVTCIWGIKVERTEIKDVRLPAGLQHSLAVEA
As for B7, the binding result in test [13] was “binds”.

Source of the values: article PMC9830511, “Flot2 acts as a novel mediator of podocyte injury in proteinuric kidney disease” (International Journal of Biological Sciences, 2023).
